The values that follow come from doi:10.1101/2025.10.22.684039.

Amino acid sequences for entries named in this document (tags omitted).
UniProt Q9H4L5: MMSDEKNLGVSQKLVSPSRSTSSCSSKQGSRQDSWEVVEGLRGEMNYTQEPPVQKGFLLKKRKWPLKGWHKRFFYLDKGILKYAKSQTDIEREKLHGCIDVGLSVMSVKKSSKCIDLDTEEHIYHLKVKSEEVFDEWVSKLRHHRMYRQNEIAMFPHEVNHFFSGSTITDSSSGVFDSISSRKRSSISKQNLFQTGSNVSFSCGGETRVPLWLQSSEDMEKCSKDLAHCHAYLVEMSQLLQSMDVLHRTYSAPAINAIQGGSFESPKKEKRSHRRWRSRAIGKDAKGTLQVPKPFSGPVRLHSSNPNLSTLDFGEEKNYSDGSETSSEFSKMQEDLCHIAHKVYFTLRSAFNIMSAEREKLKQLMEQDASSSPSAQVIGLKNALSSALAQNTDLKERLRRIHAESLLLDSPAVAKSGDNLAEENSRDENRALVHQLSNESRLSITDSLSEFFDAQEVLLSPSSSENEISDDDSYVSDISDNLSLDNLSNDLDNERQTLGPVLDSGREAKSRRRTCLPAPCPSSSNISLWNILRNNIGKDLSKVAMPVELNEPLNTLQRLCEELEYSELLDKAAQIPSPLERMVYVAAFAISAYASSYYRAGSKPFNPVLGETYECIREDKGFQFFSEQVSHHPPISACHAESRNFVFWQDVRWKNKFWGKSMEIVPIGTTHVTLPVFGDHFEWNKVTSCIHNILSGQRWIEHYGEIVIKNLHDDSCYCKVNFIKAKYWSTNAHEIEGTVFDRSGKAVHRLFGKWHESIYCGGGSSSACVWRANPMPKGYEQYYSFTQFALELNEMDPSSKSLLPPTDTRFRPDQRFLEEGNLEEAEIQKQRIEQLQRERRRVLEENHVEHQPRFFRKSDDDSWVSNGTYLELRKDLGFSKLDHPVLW

This experiment has as its target T1, VAPA (human (endogenous in HeLa)) (UniProt Q9P0L0).
T1 sequence: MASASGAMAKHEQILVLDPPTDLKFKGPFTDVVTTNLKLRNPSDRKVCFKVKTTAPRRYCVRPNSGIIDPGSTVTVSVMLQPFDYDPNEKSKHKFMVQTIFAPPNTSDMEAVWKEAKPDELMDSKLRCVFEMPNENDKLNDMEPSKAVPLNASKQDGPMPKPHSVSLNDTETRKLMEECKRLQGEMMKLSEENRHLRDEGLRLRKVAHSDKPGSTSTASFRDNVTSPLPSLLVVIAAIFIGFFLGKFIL
Description: co-IP.

No constants are given. Whether binding was seen depends on the method and setting. In cells and extracts the contact can be indirect. Some results given as binding are weak or reduced against the parent protein; the word gives no strength.

On to ORP3 (from UniProt Q9H4L5 1-887), for which the binding entry is “binds”.
